Here are results for 20 compounds from PubChem BioAssay AID192 (DTP/NCI, 2004).

SMILES strings stand for the structures. The list is a part of this screen's results and no random one: it is rich in T/C values a quarter to a half above the control, in often repeated tests (any T/C) and in doses without a T/C. Other doses and runs of a compound stand elsewhere. T/C is the treated group as % of the vehicle group. Some entries give survivors of the animals treated and no T/C: the source files T/C as zero there, which appears to mark a toxic dose or a test without result, not a measured value. Some doses without a T/C left all or most animals alive at the check, yet need not have been tolerated: the source hardly ever lists a survival T/C far under the control, and the zero likely stands for such cases as well. Survivors were counted at the toxicity check, usually on the fifth day, unless a day is given; later deaths do not show. Schedules are NCI's codes, taken here to give the interval after Q, in days (D) or hours (H), and the number of doses after X. Some entries were tested several times; their values stand side by side, smallest first. For survival time, the PubChem record calls one and a half times the control and up active, and a quarter to a half above the control has no call in these data; cut-offs in other NCI protocols can differ.

For the test, the system named is BDF1 mice, B16 melanoma ip, median survival T/C. As to the kind of experiment: NCI In Vivo Anticancer Drug Screen. Data for tumor model B16 Melanoma (intraperitoneal) in B6D2F1 (BDF1) mice. The note with it: T/C endpoint: median survival time, higher T/C = longer survival. In short, it runs like this:
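Antitumor activity is assessed in mice bearing a transplanted tumor, with survival or tumor size compared against vehicle-dosed controls and expressed as T/C.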

[1] abbreviates: dose: 400.0 mg/kg/injection, schedule: Q01DX009 (ip), vehicle: Klucel (hydroxypropylcellulose) (HPC).
The mark [2] stands for this setting: dose: 50.0 mg/kg/injection, schedule: Q01DX009 (ip), vehicle: saline with Tween-80.
Where [3] appears, read: dose: 100.0 mg/kg/injection, schedule: Q01DX009 (ip), vehicle: saline with Tween-80.
Where [4] appears, read: dose: 400.0 mg/kg/injection, schedule: Q01DX009 (ip), vehicle: saline with Tween-80.
The mark [5] stands for this setting: dose: 6.25 mg/kg/injection, schedule: Q01DX009 (ip), vehicle: saline with Tween-80.
Setting [6] is: dose: 200.0 mg/kg/injection, schedule: Q01DX009 (ip), vehicle: saline.

On to `O=C(CCN1CC1)OCCOC(=O)CCN1CC1`, for which the T/C is, setting by setting: (dose: 6.0 mg/kg/injection, schedule: Q01DX009 (ip), vehicle: saline) 132 % of control; (dose: 12.0 mg/kg/injection, schedule: Q01DX009 (ip), vehicle: saline) 127 % of control. In addition, where the note is “dose: 24.0 mg/kg/injection, schedule: Q01DX009 (ip), vehicle: saline”, the survivor count is reported as 10 of 10.
Take `COC(=O)CC(=O)c1ccc(C)cc1`: the survivor count under setting [1] is listed as 10 of 10.
`C1CCN(CCC2CCCCN2)CC1` (stereo unspecified): the survivor count (dose: 100.0 mg/kg/injection, schedule: Q01DX009 (ip), vehicle: saline) was 10 of 10.
For the compound `Nc1nc(N)c2c(ccc3c2ccn3Cc2cccc([N+](=O)[O-])c2)n1`, the survivor count reads like this: (dose: 12.5 mg/kg/injection, schedule: Q01DX009 (ip), vehicle: saline with Tween-80) 10 of 10; (dose: 25.0 mg/kg/injection, schedule: Q01DX009 (ip), vehicle: saline with Tween-80) 10 of 10.
As for `CC(C)OCCS(=O)(=O)Oc1ncc(Cl)cc1Cl`, the survivor count (dose: 400.0 mg/kg/injection, schedule: Q04DX003 (ip), vehicle: saline with Tween-80) is recorded as 10 of 10.
For `COP12(OCCO1)SC(C(F)(F)F)=C(C(F)(F)F)S2`, the survivor count is recorded as 10 of 10 under setting [2]; 1 of 10 under setting [3]; 0 of 10 (dose: 200.0 mg/kg/injection, schedule: Q01DX009 (ip), vehicle: saline with Tween-80); 0 of 10 under setting [4].
As for `C=COCC(C)C` (tested in a mixture with another compound), the survivor count is 10 of 10 (dose: 3.13 mg/kg/injection, schedule: Q01DX009 (ip), vehicle: saline with Tween-80) and 10 of 10 under setting [5].
With `[Cl][Pt+2][Cl].[NH-]CC1(C[NH-])CCC1`, the T/C (dose: 0.6 mg/kg/injection, schedule: Q01DX009 (ip), vehicle: carboxymethylcellulose (CMC)) was 145 % of control.
Turning to `CN(C)CC(C(=O)Cc1ccccc1)c1ccccc1` (stereo unspecified), the survivor count under setting [6] was 0 of 10.
For the compound `Cc1cc2nc3[nH]c4ccccc4c3nc2cc1C`, the survivor count under setting [3] is listed as 8 of 10 and the survivor count under setting [4] is 10 of 10.
In the case of `Cc1cc(Cl)ccc1NC(=O)c1ccccc1C(=O)O`, the survivor count under setting [1] is recorded as 5 of 10.
On to `CCN(CCP(c1ccccc1)c1ccccc1)CCP(c1ccccc1)c1ccccc1`, for which the survivor count is on record as 10 of 10 under setting [5]; 10 of 10 under setting [2]; 10 of 10 (dose: 100.0 mg/kg/injection, schedule: Q04DX003 (ip), vehicle: saline with Tween-80).
For the compound `CC(Cc1ccccc1)NCCc1c2ccccc2nc2ccccc12` (stereo unspecified), the survivor count reads like this: (dose: 12.5 mg/kg/injection, schedule: Q01DX009 (ip), vehicle: Klucel (hydroxypropylcellulose) (HPC)) 10 of 10; (dose: 100.0 mg/kg/injection, schedule: Q01DX009 (ip), vehicle: Klucel (hydroxypropylcellulose) (HPC)) 8 of 10 and 10 of 10; (dose: 200.0 mg/kg/injection, schedule: Q01DX009 (ip), vehicle: Klucel (hydroxypropylcellulose) (HPC)) 8 of 10.
For the compound `Brc1ccc2c(c1)-c1ccccc1C1=NCCN12`, the survivor count is given as 4 of 6 (dose: 20.0 mg/kg/injection, schedule: Q01DX009 (ip), vehicle: Klucel (hydroxypropylcellulose) (HPC)); 8 of 10 (dose: 20.0 mg/kg/injection, schedule: Q04DX003 (ip), vehicle: saline); 1 of 10 (dose: 40.0 mg/kg/injection, schedule: Q04DX003 (ip), vehicle: saline).
For `O=S(=O)(O)CNc1cc(Cl)cc(Cl)c1`, under setting [1], the survivor count was 10 of 10.
As to `N=C(N)c1ccc(/C=C/c2ccc(C(=N)N)cc2)cc1`, the survivor count reads like this: (dose: 64.0 mg/kg/injection, schedule: Q01DX009 (ip), vehicle: saline with Tween-80) 8 of 10; (dose: 128.0 mg/kg/injection, schedule: Q01DX009 (ip), vehicle: saline with Tween-80) 1 of 10; (dose: 256.0 mg/kg/injection, schedule: Q01DX009 (ip), vehicle: saline with Tween-80) 0 of 10.
For the compound `COc1ccc2c3c(c4cc(OC)c(OC)cc4c2c1)C[C@H]1CCCCN1C3`, the survivor count (dose: 1.0 mg/kg/injection, schedule: Q01DX009 (ip), vehicle: saline) is recorded as 6 of 6.
On to `Brc1nnnn1-c1ccccc1`, for which the survivor count under setting [1] was 10 of 10.
Regarding `O=NN(CCF)C(=O)NCCO`, where the note is “dose: 7.5 mg/kg/injection, schedule: Q01DX001 (ip), vehicle: saline”, the T/C was 129 % of control.
For the compound `Nc1ncnc2c1c1c(N)[nH]nc1n2C1OC(CO)C(O)C1O` (stereo unspecified), under setting [6], the survivor count is 5 of 6.
